{"source": "PubChem BioAssay AID1259271, Sanger Institute | 2017", "assay": "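Kinase knock-downs that deepen anchor drug effects in colorectal cancer cells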 (follow-up of hits)", "cells": "RKO colorectal cancer cells", "reagent": "single siRNA against human genes", "conditions": "anchor drug added to each siRNA well, cetuximab 5 µg/ml, trametinib 10 nM or BYL719 1 µM, compared with DMSO vehicle; exposure length not given", "measured": "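Survival of cells relative to control pool 2 (non-targeting), replicate average, plus a synergy score for each anchor drug (trametinib 10 nM, cetuximab 5 µg/ml, BYL719 1 µM) compared with DMSO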", "reading the numbers": "synergy score with BYL719 and synergy score with cetuximab and synergy score with trametinib: higher = stronger synthetic lethality with the drug", "rule for the call": "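Any anchor drug giving synergy above 0.10 makes the siRNA a hit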", "calls": "active = synergy with at least one drug; inactive = no synergy with any drug", "note": "The whole screen tested 160 reagents; shown is an unselected part. Over the whole deposit, 124 (78%) got an active call. 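Each row is one of four siRNAs per gene; gene-level confirmation, requiring two siRNAs in several cell lines, is not included.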 A number with no mark means an inactive call. Reagents against one gene are numbered here. Further read-outs or replicates are left out here. Not given: the amount of reagent, the time to read-out."}
{"target":"IRAK1 (interleukin 1 receptor associated kinase 1)","reagent":1,"synergy score with BYL719":"-0.0958 (active)","synergy score with cetuximab":-0.0239,"synergy score with trametinib":0.138}
{"target":"IRAK1 (interleukin 1 receptor associated kinase 1)","reagent":2,"synergy score with BYL719":-0.139,"synergy score with cetuximab":-0.121,"synergy score with trametinib":-0.186}
{"target":"IRAK1 (interleukin 1 receptor associated kinase 1)","reagent":3,"synergy score with BYL719":"0.118 (active)","synergy score with cetuximab":0.0581,"synergy score with trametinib":0.0893}
{"target":"IRAK1 (interleukin 1 receptor associated kinase 1)","reagent":4,"synergy score with BYL719":"0.192 (active)","synergy score with cetuximab":-0.122,"synergy score with trametinib":0.0486}
{"target":"PFKFB3 (6-phosphofructo-2-kinase/fructose-2,6-biphosphatase 3)","reagent":1,"synergy score with BYL719":"0.111 (active)","synergy score with cetuximab":0.176,"synergy score with trametinib":0.132}
{"target":"PFKFB3 (6-phosphofructo-2-kinase/fructose-2,6-biphosphatase 3)","reagent":2,"synergy score with BYL719":"0.207 (active)","synergy score with cetuximab":0.3,"synergy score with trametinib":0.306}
{"target":"PFKFB3 (6-phosphofructo-2-kinase/fructose-2,6-biphosphatase 3)","reagent":3,"synergy score with BYL719":"0.107 (active)","synergy score with cetuximab":0.331,"synergy score with trametinib":0.244}
{"target":"PFKFB3 (6-phosphofructo-2-kinase/fructose-2,6-biphosphatase 3)","reagent":4,"synergy score with BYL719":"0.121 (active)","synergy score with cetuximab":0.197,"synergy score with trametinib":0.271}
